The experiment deals with endogenous Par3 (180 kD isoform) of NMuMG cells (mouse (endogenous in NMuMG)) (UniProt Q99NH2). As to the kind of experiment: co-IP; NMuMG cells transfected with WT or K56R SIK; immunoprecipitation with a Par3-specific antibody (endogenous Par3); blot for SIK; cells treated with 5 ng/ml TGFβ or vehicle overnight.

Protein sequences, listed by entry. Tags and fused reporters are not part of them.
UniProt Q99NH2: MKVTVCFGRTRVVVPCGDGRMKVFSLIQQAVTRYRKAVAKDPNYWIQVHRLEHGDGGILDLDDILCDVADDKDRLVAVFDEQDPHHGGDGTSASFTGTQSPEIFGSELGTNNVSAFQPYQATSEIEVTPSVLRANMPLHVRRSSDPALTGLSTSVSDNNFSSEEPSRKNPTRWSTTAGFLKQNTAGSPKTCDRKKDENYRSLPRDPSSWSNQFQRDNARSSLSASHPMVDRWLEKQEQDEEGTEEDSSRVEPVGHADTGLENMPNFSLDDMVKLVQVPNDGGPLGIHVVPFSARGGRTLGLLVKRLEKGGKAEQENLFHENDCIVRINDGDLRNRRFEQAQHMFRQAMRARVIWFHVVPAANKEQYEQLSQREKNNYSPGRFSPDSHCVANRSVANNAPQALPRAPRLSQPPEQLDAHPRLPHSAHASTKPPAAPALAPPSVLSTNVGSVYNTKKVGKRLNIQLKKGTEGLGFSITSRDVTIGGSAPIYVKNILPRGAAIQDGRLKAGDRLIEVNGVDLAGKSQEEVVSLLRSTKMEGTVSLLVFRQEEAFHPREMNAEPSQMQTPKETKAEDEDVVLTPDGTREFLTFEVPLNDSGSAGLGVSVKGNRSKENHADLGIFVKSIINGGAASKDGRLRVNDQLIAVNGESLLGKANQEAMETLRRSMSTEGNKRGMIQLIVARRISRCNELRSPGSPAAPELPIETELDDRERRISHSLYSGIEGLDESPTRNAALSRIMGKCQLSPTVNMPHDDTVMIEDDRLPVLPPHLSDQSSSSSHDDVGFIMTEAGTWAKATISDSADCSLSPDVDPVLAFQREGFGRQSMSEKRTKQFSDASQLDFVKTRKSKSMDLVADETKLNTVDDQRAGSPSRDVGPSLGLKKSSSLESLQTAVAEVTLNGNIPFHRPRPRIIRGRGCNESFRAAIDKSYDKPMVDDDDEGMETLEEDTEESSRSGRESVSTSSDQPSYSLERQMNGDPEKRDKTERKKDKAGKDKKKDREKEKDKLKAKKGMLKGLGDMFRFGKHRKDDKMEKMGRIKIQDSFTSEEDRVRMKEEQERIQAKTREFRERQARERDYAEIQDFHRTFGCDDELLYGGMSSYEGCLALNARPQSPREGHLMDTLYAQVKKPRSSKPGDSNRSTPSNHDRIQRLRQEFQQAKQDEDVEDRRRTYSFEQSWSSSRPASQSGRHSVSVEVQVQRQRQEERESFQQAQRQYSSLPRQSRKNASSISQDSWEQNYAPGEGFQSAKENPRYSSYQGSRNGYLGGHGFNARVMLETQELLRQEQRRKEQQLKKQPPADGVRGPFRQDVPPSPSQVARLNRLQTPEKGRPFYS

No constants are given. Whether binding was seen depends on the method and setting. In cells and extracts the contact can be indirect. Some binding calls cover weakened binding; strength is not graded here.

B1: SIK K56R, kinase-inactive mutant, transfected in NMuMG cells (enzyme, UniProt P57059 1-783)
chain: MVIMSEFSADPAGQGQGQQKPLRVGFYDIERTLGKGNFAVVKLARHRVTKTQVAIRIIDKTRLDSSNLEKIYREVQLMKLLNHPHIIKLYQVMETKDMLYIVTEFAKNGEMFDYLTSNGHLSENEARKKFWQILSAVEYCHDHHIVHRDLKTENLLLDGNMDIKLADFGFGNFYKSGEPLSTWCGSPPYAAPEVFEGKEYEGPQLDIWSLGVVLYVLVCGSLPFDGPNLPTLRQRVLEGRFRIPFFMSQDCESLIRRMLVVDPARRITIAQIRQHRWMRAEPCLPGPACPAFSAHSYTSNLGDYDEQALGIMQTLGVDRQRTVESLQNSSYNHFAAIYYLLLERLKEYRNAQCARPGPARQPRPRSSDLSGLEVPQEGLSTDPFRPALLCPQPQTLVQSVLQAEMDCELQSSLQWPLFFPVDASCSGVFRPRPVSPSSLLDTAISEEARQGPGLEEEQDTQESLPSSTGRRHTLAEVSTRLSPLTAPCIVVSPSTTASPAEGTSSDSCLTFSASKSPAGLSGTPATQGLLGACSPVRLASPFLGSQSATPVLQAQGGLGGAVLLPVSFQEGRRASDTSLTQGLKAFRQQLRKTTRTKGFLGLNKIKGLARQVCQAPASRASRGGLSPFHAPAQSPGLHGGAAGSREGWSLLEEVLEQQRLLQLQHHPAAAPGCSQAPQPAPAPFVIAPCDGPGAAPLPSTLLTSGLPLLPPPLLQTGASPVASAAQLLDTHLHIGTGPTALPAVPPPRLARLAPGCEPLGLLQGDCEMEDLMPCSLGTFVLVQ
Take B1: the binding entry was “binds”.

The record behind these values is publication PMC5814169.
